Values quoted from earlier work as cited in patent publication US20210121408A1, “Methods of Administering Cannabinoid to People Diagnosed With HIV” (priority 2019, published 2021).

C=C(C)[C@@H]1CCC(C)=C[C@H]1c1c(O)cc(CCCCC)cc1O [CBD, cannabidiol]
solubility in ethanol, acetone, chloroform and light petroleum (ethanol, acetone, chloroform and light petroleum): soluble
solubility in water (water): insoluble
